This is a selection; strong and weak results do not stand in their true shares. Most values lie at the level of the controls, where differences are scatter.
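Also: lysate desalted by size exclusion to strip endogenous ATP, peptide intensities built from DIA-NN precursor signals, and peptides missing any value discarded before comparison.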

By UniProt entry, the sequences of proteins in these tests, tags left out. Where a name states a change or a piece, a line headed by the entry shows the natural chain unless it says otherwise.
UniProt P37615: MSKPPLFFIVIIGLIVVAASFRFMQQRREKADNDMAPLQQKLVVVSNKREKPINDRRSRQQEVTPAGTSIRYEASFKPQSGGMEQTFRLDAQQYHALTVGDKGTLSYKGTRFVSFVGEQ
UniProt P39173: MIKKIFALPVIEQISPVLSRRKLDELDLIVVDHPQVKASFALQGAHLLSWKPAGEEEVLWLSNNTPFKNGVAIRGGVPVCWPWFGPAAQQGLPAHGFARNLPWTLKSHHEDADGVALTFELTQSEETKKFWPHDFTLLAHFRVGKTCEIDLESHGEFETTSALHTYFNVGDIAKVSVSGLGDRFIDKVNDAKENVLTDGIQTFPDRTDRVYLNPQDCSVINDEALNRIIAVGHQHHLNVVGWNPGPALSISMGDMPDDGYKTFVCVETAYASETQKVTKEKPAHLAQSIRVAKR
UniProt P32162: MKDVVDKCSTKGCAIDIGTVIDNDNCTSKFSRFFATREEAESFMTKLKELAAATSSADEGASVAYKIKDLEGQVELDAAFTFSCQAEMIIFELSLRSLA
UniProt P32674: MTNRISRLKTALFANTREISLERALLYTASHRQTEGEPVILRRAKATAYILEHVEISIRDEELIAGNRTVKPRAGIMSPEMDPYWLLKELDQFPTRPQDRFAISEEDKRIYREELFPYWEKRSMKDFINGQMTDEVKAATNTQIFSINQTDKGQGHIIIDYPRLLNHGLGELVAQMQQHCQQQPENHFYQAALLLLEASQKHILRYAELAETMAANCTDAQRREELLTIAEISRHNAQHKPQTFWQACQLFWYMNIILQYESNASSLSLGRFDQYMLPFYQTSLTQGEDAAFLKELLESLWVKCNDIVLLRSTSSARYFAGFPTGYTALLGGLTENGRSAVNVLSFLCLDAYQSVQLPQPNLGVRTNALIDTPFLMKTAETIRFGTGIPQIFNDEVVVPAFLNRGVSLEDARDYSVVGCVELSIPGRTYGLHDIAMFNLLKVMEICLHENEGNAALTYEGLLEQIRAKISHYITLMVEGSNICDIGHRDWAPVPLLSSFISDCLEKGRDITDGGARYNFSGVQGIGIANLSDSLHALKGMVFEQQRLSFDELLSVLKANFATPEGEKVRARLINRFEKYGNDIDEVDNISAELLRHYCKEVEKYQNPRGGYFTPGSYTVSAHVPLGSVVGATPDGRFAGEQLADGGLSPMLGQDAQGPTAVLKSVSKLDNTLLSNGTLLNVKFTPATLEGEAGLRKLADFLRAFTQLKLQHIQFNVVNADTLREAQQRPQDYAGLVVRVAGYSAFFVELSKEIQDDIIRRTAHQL
UniProt P30871: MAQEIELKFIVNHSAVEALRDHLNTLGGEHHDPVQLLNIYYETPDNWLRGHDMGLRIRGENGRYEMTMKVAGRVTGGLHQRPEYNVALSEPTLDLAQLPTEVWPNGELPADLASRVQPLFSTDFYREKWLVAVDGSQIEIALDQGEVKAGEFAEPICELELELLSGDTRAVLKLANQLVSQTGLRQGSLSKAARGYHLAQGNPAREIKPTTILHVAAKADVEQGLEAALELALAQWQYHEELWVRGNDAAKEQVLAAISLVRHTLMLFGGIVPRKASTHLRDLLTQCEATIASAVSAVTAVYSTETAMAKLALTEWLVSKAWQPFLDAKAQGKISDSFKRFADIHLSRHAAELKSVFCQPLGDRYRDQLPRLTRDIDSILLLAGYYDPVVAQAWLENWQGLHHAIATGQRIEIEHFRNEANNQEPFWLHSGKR
UniProt P31131: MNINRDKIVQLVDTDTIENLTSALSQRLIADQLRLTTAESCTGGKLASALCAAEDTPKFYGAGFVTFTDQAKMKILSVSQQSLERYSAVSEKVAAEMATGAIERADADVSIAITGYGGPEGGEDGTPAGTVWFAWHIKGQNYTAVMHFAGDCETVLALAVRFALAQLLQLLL
UniProt P36930: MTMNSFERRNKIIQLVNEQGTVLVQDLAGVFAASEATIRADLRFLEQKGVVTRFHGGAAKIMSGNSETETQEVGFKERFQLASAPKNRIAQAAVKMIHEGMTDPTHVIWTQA
UniProt P37127: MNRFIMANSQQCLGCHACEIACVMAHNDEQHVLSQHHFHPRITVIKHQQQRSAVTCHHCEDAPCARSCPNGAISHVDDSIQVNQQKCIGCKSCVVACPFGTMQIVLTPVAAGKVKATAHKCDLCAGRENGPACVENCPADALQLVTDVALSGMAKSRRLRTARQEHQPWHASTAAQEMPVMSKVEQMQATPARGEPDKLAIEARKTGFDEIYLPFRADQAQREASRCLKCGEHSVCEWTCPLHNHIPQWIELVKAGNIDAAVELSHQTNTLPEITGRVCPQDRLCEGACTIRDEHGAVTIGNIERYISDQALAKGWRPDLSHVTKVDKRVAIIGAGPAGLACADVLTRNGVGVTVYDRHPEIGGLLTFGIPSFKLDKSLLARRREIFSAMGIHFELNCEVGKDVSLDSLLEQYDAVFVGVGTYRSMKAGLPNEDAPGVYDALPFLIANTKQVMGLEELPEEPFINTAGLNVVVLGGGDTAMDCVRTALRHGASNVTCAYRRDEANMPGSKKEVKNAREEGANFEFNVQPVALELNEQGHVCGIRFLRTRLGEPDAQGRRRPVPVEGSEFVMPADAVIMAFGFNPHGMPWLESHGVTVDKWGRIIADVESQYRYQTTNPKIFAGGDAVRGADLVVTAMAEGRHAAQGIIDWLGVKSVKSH
UniProt P36673: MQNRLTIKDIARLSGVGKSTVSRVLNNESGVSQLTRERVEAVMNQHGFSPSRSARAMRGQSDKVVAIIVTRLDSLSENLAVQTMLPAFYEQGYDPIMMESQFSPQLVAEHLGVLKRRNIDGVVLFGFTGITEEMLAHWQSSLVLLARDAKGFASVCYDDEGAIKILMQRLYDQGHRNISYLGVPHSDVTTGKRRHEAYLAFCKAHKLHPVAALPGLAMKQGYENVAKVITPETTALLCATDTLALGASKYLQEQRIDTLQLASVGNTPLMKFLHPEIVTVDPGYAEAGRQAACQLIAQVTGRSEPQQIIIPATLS
UniProt P37195: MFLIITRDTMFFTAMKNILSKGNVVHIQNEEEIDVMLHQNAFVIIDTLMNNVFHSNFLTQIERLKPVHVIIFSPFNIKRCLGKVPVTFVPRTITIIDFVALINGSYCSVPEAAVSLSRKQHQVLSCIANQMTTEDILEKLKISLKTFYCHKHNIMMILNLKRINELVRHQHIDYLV
UniProt P31474: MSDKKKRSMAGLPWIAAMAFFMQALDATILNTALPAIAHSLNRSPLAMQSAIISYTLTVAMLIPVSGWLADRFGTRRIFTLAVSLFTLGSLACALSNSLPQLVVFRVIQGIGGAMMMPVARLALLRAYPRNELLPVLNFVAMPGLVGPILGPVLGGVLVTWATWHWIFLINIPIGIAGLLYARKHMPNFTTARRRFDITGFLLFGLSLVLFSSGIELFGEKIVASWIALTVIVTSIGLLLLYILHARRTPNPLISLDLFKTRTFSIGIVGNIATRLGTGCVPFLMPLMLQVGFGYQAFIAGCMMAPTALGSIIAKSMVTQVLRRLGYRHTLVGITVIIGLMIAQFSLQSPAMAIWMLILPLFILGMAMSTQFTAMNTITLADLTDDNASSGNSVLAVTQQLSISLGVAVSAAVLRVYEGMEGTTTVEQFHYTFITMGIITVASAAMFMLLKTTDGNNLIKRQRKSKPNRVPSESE
UniProt P32669: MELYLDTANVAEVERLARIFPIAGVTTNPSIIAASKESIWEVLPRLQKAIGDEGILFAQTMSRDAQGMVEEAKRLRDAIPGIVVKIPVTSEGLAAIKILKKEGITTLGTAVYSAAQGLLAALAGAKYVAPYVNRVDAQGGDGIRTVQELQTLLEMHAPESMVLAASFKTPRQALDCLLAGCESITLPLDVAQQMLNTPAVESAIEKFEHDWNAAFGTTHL
UniProt P39332: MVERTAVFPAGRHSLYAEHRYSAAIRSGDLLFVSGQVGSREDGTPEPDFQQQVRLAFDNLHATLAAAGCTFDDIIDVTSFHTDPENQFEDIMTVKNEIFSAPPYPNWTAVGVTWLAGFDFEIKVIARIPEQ
UniProt P31666: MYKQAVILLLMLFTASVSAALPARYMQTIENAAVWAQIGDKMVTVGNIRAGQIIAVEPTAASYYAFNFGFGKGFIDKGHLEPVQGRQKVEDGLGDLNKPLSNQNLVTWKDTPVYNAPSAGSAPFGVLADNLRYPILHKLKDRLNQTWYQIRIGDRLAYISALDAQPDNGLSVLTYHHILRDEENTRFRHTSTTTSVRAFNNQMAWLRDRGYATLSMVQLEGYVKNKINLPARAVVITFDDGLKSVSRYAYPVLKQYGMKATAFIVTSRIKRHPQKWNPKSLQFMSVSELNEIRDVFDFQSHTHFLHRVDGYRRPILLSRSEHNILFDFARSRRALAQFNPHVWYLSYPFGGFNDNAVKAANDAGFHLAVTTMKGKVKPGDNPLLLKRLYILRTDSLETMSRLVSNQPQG
UniProt P31443: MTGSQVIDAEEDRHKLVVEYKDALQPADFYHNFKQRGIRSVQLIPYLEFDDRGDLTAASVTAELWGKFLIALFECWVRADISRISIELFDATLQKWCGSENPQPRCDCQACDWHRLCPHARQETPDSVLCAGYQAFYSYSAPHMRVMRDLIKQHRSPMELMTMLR
UniProt P33362: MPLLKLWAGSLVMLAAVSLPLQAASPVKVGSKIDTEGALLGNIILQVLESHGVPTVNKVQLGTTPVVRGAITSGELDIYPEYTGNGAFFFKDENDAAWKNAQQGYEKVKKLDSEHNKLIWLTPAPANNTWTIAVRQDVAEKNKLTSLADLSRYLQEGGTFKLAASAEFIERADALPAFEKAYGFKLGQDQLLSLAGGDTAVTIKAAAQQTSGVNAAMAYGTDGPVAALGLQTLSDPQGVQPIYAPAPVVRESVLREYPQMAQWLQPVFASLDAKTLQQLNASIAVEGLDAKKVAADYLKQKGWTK
UniProt P32176, whole entry: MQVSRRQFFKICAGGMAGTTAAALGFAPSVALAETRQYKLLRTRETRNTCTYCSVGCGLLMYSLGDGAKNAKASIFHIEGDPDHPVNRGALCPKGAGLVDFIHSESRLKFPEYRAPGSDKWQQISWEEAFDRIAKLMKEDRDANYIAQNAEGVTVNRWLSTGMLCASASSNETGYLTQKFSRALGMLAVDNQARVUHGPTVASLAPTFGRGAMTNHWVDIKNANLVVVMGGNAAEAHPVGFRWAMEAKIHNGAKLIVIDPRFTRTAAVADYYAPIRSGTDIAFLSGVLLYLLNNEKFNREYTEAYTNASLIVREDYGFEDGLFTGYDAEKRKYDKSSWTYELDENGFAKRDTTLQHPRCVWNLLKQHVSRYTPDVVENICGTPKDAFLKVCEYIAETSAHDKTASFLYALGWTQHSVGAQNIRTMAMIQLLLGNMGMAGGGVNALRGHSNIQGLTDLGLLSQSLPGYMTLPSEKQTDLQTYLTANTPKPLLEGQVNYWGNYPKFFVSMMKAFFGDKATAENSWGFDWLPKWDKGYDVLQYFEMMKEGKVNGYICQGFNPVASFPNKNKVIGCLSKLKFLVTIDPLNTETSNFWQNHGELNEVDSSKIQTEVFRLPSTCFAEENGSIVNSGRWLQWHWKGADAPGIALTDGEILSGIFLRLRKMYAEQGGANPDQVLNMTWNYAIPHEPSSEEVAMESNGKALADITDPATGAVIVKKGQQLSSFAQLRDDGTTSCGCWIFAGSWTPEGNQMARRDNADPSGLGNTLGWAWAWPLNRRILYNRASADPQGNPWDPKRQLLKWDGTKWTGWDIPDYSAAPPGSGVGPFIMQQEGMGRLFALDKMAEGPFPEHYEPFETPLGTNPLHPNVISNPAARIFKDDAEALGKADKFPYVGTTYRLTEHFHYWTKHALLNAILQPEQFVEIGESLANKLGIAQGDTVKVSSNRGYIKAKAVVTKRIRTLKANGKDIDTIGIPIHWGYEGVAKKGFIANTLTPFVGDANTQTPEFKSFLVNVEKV
UniProt P37679: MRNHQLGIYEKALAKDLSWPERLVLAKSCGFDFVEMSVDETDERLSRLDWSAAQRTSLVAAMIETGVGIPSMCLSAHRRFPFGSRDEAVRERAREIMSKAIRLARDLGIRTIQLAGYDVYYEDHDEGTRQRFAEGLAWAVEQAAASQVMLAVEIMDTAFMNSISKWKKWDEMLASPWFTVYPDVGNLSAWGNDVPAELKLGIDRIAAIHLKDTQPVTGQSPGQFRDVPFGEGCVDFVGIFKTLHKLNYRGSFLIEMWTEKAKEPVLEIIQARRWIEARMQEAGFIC
UniProt P36667: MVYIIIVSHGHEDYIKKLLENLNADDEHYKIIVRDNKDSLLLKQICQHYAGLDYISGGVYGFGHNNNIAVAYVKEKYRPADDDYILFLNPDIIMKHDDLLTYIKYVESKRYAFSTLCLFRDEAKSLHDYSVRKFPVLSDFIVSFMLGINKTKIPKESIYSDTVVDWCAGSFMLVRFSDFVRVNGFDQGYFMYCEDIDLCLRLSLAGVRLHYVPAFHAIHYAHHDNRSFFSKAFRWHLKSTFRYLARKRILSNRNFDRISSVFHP

Compound in this assay: Nc1ncnc2c1ncn2[C@@H]1O[C@H](COP(=O)(O)OP(=O)(O)OP(=O)(O)O)[C@@H](O)[C@H]1O [adenosine 5'-triphosphate]
Put plainly: log2 fold change of tryptic peptide abundance, ligand vs vehicle (limited proteolysis) (log2 ratio); higher = more trypsin-susceptible (destabilized). To be noted: ligand concentration: 5 mM; sample: E. coli desalted lysate; replicate design: treated before aliquoting. On the procedure: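 HT-PELSA: desalted E. coli K-12 BW25113 lysate (with 12 mM MgCl2) incubated with 5 mM ATP (pH 7) or water for 30 min at 25 C, then a 4 min trypsin pulse at 22 C. Peptides were quantified by DIA-MS (4 replicates). Value is the peptide log2 fold change (treated/control); negative = stabilized. Scale: negative = ligand-stabilized region.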
For the target “UniProt P38038 (peptide sequence: HIEIDLGDSGMR, peptide start residue: 258)”, the log2 fold change was found to be 0.469. “UniProt P37615 (peptide sequence: QQEVTPAGTSIR, peptide start residue: 60)”: the log2 fold change is -0.27. Next, “UniProt P31678 (peptide sequence: GMAFALHYR, peptide start residue: 126)”: 0.474; “UniProt P33352 (peptide sequence: LYIESPR, peptide start residue: 197)”: -0.0731; “UniProt P39173 (peptide sequence: RKLDELDLIVVDHPQVK, peptide start residue: 21)”: 0.572. Next, “UniProt P33363 (peptide sequence: HFAAYGAVEGGK, peptide start residue: 209)”: -0.812; “UniProt P33666 (peptide sequence: DSTGTEINGNNGK, peptide start residue: 238)”: -0.0352; “UniProt P37095 (peptide sequence: KAPVEQWSAGATGLGVR, peptide start residue: 403)”: -0.457. Next, “UniProt P32162 (peptide sequence: DVVDKCSTK, peptide start residue: 3)”: -0.384; “UniProt P32717 (peptide sequence: MADLVKAK, peptide start residue: 623)”: -0.427.

With “UniProt P32674 (peptide sequence: FAISEEDKR, peptide start residue: 101)”, the log2 fold change worked out at 0.714. Next, “UniProt P31447 (peptide sequence: DYDTGLPTQGVK, peptide start residue: 478)”: -0.51; “UniProt P30871 (peptide sequence: IEIEHFR, peptide start residue: 411)”: 0.378; “UniProt P37387 (peptide sequence: VLKPYVDSGKIK, peptide start residue: 171)”: -1.15. Next, “UniProt P31131 (peptide sequence: LTTAESCTGGK, peptide start residue: 35)”: -0.336. The value for “UniProt P33595 (peptide sequence: TLLNTMQDR, peptide start residue: 42)” was 0.396; that for “UniProt P36930 (peptide sequence: FQLASAPK, peptide start residue: 79)” was 0.0339; that for “UniProt P32153 (peptide sequence: LGQGPGLMLFDKR, peptide start residue: 247)” was -1.12. In the case of “UniProt P37127 (peptide sequence: YISDQALAK, peptide start residue: 306)”, the log2 fold change is -0.216. Consider “UniProt P33020 (peptide sequence: EKEILAILR, peptide start residue: 5)”, for which the log2 fold change is -0.45. Next, “UniProt P39288 (peptide sequence: LQAWLDK, peptide start residue: 40)”: 0.239; “UniProt P37661 (peptide sequence: EHLHGTPR, peptide start residue: 473)”: -0.526; “UniProt P31600 (peptide sequence: ACDAAPTLR, peptide start residue: 143)”: 0.388.

Regarding “UniProt P36673 (peptide sequence: LYDQGHR, peptide start residue: 170)”, the log2 fold change is -0.457. Next, “UniProt P37195 (peptide sequence: HNIMMILNLKR, peptide start residue: 152)”: -0.303. Turning to “UniProt P37146 (peptide sequence: ISDDKDLEVWNR, peptide start residue: 14)”, the log2 fold change worked out at 0.265. The value for “UniProt P31806 (peptide sequence: VITPHPGEAAR, peptide start residue: 371)” was 0.382. Next, “UniProt P31474 (peptide sequence: SKPNRVPSESE, peptide start residue: 465)”: 0.288; “UniProt P32669 (peptide sequence: DAQGMVEEAKR, peptide start residue: 64)”: 0.561; “UniProt P37443 (peptide sequence: VALASASRYNAWR, peptide start residue: 682)”: 0.14. The value for “UniProt P39332 (peptide sequence: HSLYAEHR, peptide start residue: 13)” was -0.467.

With “UniProt P31666 (peptide sequence: GFIDKGHLEPVQGR, peptide start residue: 73)”, the log2 fold change is 0.335. The value for “UniProt P31443 (peptide sequence: SPMELMTMLR, peptide start residue: 156)” was -0.412.

As for “UniProt P33362 (peptide sequence: VQLGTTPVVR, peptide start residue: 59)”, the log2 fold change was -0.284.

For “UniProt P32176 (peptide sequence: ASIFHIEGDPDHPVNR, peptide start residue: 73)”, the log2 fold change was 0.249. As to “UniProt P39165 (peptide sequence: NNLPTLEYR, peptide start residue: 340)”, the log2 fold change was 0.0229. Take “UniProt P31459 (peptide sequence: AWLYQGDHCLESR, peptide start residue: 17)”: the log2 fold change is -0.364. Next, “UniProt P37679 (peptide sequence: DLSWPER, peptide start residue: 16)”: -0.205; “UniProt P33025 (peptide sequence: DLPFVVAAGK, peptide start residue: 98)”: 0.301. The value for “UniProt P36667 (peptide sequence: HDDLLTYIK, peptide start residue: 96)” was 0.576.

The values above are taken from the supplement of paper PMC12819154, “High-throughput peptide-centric local stability assay extends protein–ligand identification to membrane proteins, tissues and bacteria” (Nature Structural & Molecular Biology, 2025).
